Assay [1] has as its target T1, protein numb homolog (NUMB) (rat (endogenous in H9C2)) (UniProt Q2LC84).
T1 sequence: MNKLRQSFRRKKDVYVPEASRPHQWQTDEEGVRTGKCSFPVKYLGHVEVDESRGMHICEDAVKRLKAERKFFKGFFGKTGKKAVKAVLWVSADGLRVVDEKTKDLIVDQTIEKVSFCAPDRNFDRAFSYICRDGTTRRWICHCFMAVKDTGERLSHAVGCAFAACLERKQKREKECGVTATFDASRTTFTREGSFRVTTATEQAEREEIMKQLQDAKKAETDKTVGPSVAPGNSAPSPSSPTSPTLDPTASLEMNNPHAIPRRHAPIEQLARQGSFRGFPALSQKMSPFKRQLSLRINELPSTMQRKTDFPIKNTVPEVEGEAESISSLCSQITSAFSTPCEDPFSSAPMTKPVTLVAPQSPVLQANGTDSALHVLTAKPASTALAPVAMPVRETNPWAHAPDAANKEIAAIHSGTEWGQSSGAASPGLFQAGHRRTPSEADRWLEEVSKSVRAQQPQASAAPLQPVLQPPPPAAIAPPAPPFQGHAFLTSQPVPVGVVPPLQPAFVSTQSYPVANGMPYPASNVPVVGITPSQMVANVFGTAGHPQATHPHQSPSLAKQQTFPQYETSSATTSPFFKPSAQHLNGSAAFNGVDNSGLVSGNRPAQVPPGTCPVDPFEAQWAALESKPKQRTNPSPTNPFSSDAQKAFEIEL
The experiment in a line: co-IP; cell lysates in Co-IP lysis buffer with protease inhibitor, 2 ug primary antibody or IgG, protein A/G beads overnight at 4°C, three washes, Western blotting. Background: A western blot detects proteins with antibodies after separation by electrophoresis.

Assay [2] has as its target T2, JNK-interacting protein-2 (JIP2) (rat (endogenous in H9C2)) (UniProt G3V9M2).
T2 sequence: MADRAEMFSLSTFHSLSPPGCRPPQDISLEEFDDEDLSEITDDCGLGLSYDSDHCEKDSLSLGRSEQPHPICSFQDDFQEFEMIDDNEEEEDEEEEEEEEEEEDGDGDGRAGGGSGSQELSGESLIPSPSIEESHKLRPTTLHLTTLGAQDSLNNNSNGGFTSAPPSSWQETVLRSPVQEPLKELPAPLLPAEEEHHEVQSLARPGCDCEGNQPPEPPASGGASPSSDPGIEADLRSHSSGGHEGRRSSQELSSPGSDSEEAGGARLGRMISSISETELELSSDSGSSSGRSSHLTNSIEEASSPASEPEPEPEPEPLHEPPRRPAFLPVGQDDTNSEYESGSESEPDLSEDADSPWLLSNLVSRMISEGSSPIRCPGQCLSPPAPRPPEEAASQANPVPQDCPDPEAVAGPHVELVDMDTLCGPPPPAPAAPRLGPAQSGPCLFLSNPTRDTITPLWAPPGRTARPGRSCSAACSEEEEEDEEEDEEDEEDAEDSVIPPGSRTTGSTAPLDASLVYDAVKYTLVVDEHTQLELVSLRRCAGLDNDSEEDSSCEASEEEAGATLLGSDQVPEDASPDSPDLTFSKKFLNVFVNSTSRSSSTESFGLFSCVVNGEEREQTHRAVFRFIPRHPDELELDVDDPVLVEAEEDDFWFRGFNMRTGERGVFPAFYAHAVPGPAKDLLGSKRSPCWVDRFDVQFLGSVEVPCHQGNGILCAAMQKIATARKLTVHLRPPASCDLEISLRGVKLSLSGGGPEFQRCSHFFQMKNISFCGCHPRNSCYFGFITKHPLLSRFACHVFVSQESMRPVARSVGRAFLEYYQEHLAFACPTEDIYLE
The description is as above.

No constants are given. Whether binding was seen depends on the method and setting. Binding seen in cells or lysates may run through a third protein. Some binding calls cover weakened binding; strength is not graded here.

B1: Lysosomal associated membrane protein 1 (LAMP1) (protein, UniProt P14562 22-407)
chain: APALFEVKDNNGTACIMASFSASFLTTYDAGHVSKVSNMTLPASAEVLKNSSSCGEKNASEPTLAITFGEGYLLKLTFTKNTTRYSVQHMYFTYNLSDTQFFPNASSKGPDTVDSTTDIKADINKTYRCVSDIRVYMKNVTIVLWDATIQAYLPSSNFSKEETRCPQDQPSPTTGPPSPSPPLVPTNPSVSKYNVTGDNGTCLLASMALQLNITYMKKDNTTVTRAFNINPSDKYSGTCGAQLVTLKVGNKSRVLELQFGMNATSSLFFLQGVQLNMTLPDAIEPTFSTSNYSLKALQASVGNSYKCNSEEHIFVSKALALNVFSVQVQAFRVESDRFGSVEECVQDGNNMLIPIAVGGALAGLVLIVLIAYLIGRKRSHAGYQTI
With B1, the binding result in assay [1] and in assay [2] was “binds” throughout.

B2: protein numb homolog (NUMB) (protein, UniProt Q2LC84 1-652)
chain: MNKLRQSFRRKKDVYVPEASRPHQWQTDEEGVRTGKCSFPVKYLGHVEVDESRGMHICEDAVKRLKAERKFFKGFFGKTGKKAVKAVLWVSADGLRVVDEKTKDLIVDQTIEKVSFCAPDRNFDRAFSYICRDGTTRRWICHCFMAVKDTGERLSHAVGCAFAACLERKQKREKECGVTATFDASRTTFTREGSFRVTTATEQAEREEIMKQLQDAKKAETDKTVGPSVAPGNSAPSPSSPTSPTLDPTASLEMNNPHAIPRRHAPIEQLARQGSFRGFPALSQKMSPFKRQLSLRINELPSTMQRKTDFPIKNTVPEVEGEAESISSLCSQITSAFSTPCEDPFSSAPMTKPVTLVAPQSPVLQANGTDSALHVLTAKPASTALAPVAMPVRETNPWAHAPDAANKEIAAIHSGTEWGQSSGAASPGLFQAGHRRTPSEADRWLEEVSKSVRAQQPQASAAPLQPVLQPPPPAAIAPPAPPFQGHAFLTSQPVPVGVVPPLQPAFVSTQSYPVANGMPYPASNVPVVGITPSQMVANVFGTAGHPQATHPHQSPSLAKQQTFPQYETSSATTSPFFKPSAQHLNGSAAFNGVDNSGLVSGNRPAQVPPGTCPVDPFEAQWAALESKPKQRTNPSPTNPFSSDAQKAFEIEL
Regarding B2, in assay [2], the binding result is recorded as “binds”.

The values above are taken from paper PMC8876908.
